# Publication PMC9564825
# Results are given in words; binding and its absence hold for the method and conditions named. Binding can be weak; no strength is given.
# Target: β-tubulin of the human sperm SMT (human (endogenous in spermatozoa))
# Experiment: cryo-EM structure; single-particle cryo-EM of the 8-nm repeat of native singlet microtubules at the distal tip of demembranated human spermatozoa; 6.0 Å consensus, 4.5 to 4.7 Å after protofilament-focused refinement
binder,measurement,value
"SPACA9 (protein, UniProt Q96E40 1-222) MNEVKESLRSIEQKYKLFQQQQLTFTAALEHCRENAHDKIRPISSIGQVQSYMEHYCNSSTDRRVLLMFLDICSELNKLCQHFEAVHSGTPVTNNLLEKCKTLVSQSNDLSSLRAKYPHDVVNHLSCDEARNHYGGVVSLIPLILDLMKEWIAHSEKLPRKVLQHVSEPQAHQESTRGAARPAQAIGTQPRATKHKCRQLTKASLKPRGCSKPPWRPPGGKL",binding,binds
